# The supplement of paper PMC6411743
# The chains behind the UniProt entries cited, without tags or fusion partners. Where a name states a change or a piece, a line headed by the entry shows the natural chain unless it says otherwise.
# UniProt Q9H204: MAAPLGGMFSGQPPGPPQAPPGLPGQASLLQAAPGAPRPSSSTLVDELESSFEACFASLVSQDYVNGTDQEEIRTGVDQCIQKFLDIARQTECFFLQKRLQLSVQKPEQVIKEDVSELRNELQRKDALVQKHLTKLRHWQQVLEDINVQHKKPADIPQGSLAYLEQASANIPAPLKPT
# UniProt Q5VV52: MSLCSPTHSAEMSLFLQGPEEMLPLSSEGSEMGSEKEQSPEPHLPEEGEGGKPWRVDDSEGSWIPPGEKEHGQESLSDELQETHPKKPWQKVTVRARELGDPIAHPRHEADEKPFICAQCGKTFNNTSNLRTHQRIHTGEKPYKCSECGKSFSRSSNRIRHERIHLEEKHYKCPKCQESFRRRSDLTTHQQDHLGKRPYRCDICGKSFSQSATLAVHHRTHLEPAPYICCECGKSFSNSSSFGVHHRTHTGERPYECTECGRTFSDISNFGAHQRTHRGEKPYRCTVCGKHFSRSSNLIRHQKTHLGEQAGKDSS
# UniProt Q9Y2Y9: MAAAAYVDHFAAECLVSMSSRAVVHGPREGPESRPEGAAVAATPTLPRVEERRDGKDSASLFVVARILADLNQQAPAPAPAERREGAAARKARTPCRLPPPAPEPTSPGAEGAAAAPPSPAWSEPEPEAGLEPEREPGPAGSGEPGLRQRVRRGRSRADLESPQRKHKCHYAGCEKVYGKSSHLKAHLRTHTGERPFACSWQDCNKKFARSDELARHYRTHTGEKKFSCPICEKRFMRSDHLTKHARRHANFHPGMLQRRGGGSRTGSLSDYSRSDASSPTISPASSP
# UniProt Q6PCB5: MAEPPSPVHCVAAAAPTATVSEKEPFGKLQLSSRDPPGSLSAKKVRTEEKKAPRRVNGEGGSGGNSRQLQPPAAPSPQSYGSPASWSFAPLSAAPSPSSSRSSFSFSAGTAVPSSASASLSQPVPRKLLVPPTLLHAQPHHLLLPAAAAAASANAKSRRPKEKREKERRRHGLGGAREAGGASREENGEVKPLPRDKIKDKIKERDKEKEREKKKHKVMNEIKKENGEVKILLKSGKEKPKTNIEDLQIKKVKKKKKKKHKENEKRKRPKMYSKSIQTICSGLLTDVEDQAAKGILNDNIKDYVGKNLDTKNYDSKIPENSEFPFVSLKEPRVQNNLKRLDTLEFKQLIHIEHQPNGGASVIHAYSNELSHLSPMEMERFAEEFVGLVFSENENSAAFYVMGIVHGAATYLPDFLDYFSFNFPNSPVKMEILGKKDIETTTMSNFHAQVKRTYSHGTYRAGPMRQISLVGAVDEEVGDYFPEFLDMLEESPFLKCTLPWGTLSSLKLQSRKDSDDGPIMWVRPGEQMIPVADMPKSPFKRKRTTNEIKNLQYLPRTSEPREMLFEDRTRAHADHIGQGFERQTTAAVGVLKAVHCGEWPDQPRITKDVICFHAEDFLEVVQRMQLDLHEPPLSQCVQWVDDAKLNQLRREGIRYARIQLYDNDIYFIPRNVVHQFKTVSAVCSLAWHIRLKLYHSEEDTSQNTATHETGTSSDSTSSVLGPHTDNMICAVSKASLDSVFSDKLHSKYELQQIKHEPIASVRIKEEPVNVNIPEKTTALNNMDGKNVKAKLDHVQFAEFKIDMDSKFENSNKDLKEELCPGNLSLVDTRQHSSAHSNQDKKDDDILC
# UniProt Q9Y496, whole entry: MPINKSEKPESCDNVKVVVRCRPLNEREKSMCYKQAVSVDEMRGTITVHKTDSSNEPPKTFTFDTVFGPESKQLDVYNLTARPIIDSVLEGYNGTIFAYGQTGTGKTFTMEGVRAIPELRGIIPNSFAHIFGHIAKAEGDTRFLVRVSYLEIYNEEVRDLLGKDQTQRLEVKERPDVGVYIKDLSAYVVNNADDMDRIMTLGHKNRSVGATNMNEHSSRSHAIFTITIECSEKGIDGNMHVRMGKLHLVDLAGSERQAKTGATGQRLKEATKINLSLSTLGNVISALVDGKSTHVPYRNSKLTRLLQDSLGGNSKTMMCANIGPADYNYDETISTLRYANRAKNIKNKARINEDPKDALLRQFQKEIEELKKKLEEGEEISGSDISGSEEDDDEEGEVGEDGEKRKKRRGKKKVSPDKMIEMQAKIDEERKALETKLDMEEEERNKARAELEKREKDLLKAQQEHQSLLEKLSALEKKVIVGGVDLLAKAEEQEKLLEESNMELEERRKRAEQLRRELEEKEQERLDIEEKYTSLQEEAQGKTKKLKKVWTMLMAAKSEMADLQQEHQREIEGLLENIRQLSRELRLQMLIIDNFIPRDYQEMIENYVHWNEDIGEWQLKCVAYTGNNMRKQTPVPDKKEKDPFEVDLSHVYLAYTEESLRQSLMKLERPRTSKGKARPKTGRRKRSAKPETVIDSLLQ
# UniProt I3L1I5, whole entry, looked up: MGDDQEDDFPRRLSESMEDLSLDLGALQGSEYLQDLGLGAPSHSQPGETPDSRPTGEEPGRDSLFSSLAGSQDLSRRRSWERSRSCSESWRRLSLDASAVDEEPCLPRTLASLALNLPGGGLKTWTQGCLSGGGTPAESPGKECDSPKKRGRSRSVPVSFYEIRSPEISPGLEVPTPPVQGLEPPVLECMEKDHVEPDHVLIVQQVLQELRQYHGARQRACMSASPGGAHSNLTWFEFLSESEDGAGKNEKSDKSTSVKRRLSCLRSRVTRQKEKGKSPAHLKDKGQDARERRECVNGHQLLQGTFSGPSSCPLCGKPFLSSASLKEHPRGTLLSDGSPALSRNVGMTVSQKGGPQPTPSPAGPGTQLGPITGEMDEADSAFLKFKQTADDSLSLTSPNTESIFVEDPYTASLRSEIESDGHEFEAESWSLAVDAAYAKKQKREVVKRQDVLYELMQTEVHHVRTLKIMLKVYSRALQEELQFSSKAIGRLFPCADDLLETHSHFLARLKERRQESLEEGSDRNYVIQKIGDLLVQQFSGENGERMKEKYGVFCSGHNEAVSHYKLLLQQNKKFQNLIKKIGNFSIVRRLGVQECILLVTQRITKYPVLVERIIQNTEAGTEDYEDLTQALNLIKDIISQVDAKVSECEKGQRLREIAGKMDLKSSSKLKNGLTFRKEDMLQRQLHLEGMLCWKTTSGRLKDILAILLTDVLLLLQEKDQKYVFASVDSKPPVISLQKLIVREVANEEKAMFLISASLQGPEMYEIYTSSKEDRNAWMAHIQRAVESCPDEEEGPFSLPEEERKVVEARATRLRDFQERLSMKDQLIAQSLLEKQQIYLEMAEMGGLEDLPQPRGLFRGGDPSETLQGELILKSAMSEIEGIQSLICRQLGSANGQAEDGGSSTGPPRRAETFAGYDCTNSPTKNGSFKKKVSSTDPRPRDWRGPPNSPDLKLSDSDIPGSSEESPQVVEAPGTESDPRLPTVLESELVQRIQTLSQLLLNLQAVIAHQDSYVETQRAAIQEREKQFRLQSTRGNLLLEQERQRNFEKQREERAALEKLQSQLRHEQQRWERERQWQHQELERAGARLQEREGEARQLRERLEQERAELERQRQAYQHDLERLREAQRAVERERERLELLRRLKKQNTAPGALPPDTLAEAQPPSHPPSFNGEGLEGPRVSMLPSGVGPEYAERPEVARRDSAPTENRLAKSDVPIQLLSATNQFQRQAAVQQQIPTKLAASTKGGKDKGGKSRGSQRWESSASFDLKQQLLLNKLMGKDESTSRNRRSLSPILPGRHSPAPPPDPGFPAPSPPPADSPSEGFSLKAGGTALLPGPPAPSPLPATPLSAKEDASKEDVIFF
# UniProt Q99550: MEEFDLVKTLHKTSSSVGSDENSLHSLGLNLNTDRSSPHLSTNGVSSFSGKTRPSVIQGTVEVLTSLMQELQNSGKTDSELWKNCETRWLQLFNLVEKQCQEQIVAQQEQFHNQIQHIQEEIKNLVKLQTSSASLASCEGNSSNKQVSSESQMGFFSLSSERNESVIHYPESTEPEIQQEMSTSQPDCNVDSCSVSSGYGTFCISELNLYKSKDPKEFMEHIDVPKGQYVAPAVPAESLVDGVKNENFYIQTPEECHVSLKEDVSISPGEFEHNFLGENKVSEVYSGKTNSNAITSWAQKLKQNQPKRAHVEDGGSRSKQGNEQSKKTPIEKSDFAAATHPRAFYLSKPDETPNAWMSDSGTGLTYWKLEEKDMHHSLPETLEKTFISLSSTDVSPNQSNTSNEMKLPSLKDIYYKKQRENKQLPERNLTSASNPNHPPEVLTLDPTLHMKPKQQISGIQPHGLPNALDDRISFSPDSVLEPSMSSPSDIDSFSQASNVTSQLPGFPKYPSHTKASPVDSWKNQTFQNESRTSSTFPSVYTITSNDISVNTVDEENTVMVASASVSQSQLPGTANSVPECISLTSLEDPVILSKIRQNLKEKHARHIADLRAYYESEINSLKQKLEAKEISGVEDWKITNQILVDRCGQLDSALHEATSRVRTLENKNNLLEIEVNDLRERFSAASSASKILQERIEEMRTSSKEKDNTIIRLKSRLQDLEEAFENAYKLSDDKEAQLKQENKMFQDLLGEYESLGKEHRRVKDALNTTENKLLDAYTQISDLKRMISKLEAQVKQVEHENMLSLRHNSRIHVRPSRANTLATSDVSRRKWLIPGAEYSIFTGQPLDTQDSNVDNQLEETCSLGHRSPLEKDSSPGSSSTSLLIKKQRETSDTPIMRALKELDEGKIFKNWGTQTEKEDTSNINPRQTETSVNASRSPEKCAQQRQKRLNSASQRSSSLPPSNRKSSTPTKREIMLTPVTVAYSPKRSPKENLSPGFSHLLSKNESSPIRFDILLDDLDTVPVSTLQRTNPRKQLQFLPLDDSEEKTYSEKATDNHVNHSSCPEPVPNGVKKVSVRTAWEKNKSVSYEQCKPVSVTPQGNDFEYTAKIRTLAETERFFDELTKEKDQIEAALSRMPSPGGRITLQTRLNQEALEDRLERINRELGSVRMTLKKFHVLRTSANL
# UniProt Q8IWT0: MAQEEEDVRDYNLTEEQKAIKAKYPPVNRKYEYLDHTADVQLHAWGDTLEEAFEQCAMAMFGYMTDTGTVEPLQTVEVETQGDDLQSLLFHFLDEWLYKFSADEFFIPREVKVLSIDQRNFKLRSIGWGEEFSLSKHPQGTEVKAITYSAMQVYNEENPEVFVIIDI
# UniProt Q16629: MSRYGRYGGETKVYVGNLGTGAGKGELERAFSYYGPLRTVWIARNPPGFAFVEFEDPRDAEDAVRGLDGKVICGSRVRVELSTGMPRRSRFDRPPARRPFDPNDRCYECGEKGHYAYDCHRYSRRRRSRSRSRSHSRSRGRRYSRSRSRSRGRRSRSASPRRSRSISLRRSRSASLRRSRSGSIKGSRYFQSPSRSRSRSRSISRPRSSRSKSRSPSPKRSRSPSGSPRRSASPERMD
# UniProt P59780: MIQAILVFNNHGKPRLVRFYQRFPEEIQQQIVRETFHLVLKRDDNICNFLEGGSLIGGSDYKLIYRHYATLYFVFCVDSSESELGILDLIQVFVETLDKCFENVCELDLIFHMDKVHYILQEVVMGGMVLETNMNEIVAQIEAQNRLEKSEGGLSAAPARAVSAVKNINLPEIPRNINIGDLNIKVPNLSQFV
# UniProt Q9UL46, whole entry: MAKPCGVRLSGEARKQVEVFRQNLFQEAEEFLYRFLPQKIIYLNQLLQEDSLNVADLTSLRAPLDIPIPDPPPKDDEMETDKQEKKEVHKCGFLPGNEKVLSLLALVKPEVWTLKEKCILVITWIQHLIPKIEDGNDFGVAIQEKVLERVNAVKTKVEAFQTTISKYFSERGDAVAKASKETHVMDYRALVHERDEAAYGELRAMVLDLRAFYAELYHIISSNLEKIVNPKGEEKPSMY
# UniProt Q92544: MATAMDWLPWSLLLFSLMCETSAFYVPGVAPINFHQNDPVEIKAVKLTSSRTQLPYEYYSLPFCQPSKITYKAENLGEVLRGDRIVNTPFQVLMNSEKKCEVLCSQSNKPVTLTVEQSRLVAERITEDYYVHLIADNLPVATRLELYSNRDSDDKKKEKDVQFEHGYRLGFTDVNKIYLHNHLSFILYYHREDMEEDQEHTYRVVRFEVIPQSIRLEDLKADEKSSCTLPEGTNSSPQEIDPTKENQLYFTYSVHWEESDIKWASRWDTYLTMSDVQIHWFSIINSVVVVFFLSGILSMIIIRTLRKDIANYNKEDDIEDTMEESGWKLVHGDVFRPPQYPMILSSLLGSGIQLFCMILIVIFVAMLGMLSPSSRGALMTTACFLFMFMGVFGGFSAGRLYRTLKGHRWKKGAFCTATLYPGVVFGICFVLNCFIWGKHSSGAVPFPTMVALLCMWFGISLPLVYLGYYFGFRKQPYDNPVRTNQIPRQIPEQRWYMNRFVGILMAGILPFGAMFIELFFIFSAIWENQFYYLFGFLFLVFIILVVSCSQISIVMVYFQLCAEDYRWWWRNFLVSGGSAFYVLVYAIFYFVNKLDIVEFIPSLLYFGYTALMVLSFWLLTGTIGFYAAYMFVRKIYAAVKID
# ± gives the standard deviation of the averaged measurements. The entries are a selection whose mix differs from that of the whole data set.
# Compound: Nc1ncnc2c1ncn2[C@@H]1O[C@H](COP(=O)(O)OP(=O)(O)NP(=O)(O)O)[C@@H](O)[C@H]1O [adenylyl imidodiphosphate]
# Test: NP40-soluble protein abundance relative to vehicle (solubility fold change) (ratio); higher = more soluble protein in presence of AMP-PNP
# Summary of the method: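 Each value is a fold change relative to the detergent-processed vehicle, calculated per replicate from vsn-normalised intensities. Jurkat crude lysate received eight concentrations (0.1 to 10 mM) for 10 min at room temperature and 3 min at 37 °C, then was solubilised in 0.8% NP40 with benzonase (60 min, 4 °C). The ultracentrifuged supernatant was TMT-labelled and run by LC-MS/MS in three independent experiments.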
Target,NP40-soluble protein abundance (concentration: 1mM),NP40-soluble protein abundance (concentration: 2mM),NP40-soluble protein abundance (concentration: 4mM),NP40-soluble protein abundance (concentration: 6mM),NP40-soluble protein abundance (concentration: 8mM),NP40-soluble protein abundance (concentration: 10mM)
A0A0A0MSI2|B3KPJ4 and related entries (UniProt Q8IXK0),1.03 ± 0.022,1.06 ± 0.052,1.07 ± 0.013,1.15 ± 0.027,1.16 ± 0.021,1.25 ± 0.066
A0A087WWM4|F8WAN9 and related entries (UniProt Q9P2T1),1.01 ± 0.016,1.03 ± 0.028,1.02 ± 0.013,1.07 ± 0.029,1.07 ± 0.033,1.09 ± 0.015
A0A087X0M1|H0YAA8 and related entries (UniProt Q9H204),0.954 ± 0.048,1.01 ± 0.079,0.945 ± 0.03,0.932 ± 0.061,0.887 ± 0.073,0.919 ± 0.032
A0A0A0MRR1|Q5VV50 and related entries (UniProt Q5VV52),1.01 ± 0.021,1.04 ± 0.035,1.05 ± 0.033,1.05 ± 0.02,1.06 ± 0.029,1.08 ± 0.046
A0A087WXM6|A0A0A6YYL6|J3KRX5 and related entries (UniProt P18621),0.984 ± 0.07,0.958 ± 0.046,0.936 ± 0.071,0.871 ± 0.025,0.787 ± 0.052,0.962 ± 0.11
A0A0B4J2F8|A6NFM0 and related entries (UniProt Q9GZM3+Q9H1A7+P52435+F6S314+E2QRJ6+A6NFM0),0.961 ± 0.012,0.998 ± 0.042,0.939 ± 0.037,0.99 ± 0.031,1.03 ± 0.015,0.965 ± 0.12
A0A0A0MTH3|Q13418 (UniProt Q13418),0.962 ± 0.032,0.902 ± 0.069,0.955 ± 0.018,0.98 ± 0.028,0.995 ± 0.042,0.961 ± 0.0099
A0A087X1K6|H0YK05 and related entries (UniProt Q9Y2Y9),0.998 ± 0.029,0.998 ± 0.03,0.971 ± 0.024,1.01 ± 0.016,0.991 ± 0.03,0.996 ± 0.0047
A0A087WY55|Q9NP79 (UniProt Q9NP79),0.98 ± 0.07,1.03 ± 0.06,0.973 ± 0.092,0.945 ± 0.11,0.979 ± 0.069,0.891 ± 0.11
A0A0G2JLR5|A0A0G2JMW4|Q02833 and related entries (UniProt Q02833),1.02 ± 0.032,1.03 ± 0.019,0.988 ± 0.025,0.996 ± 0.017,1.01 ± 0.017,1.01 ± 0.036
A0A087X239|Q6PCB5 (UniProt Q6PCB5),1.05 ± 0.017,1.114 ± 0.0078,1.12 ± 0.015,1.13 ± 0.036,1.15 ± 0.013,1.17 ± 0.022
A0A0A0MR39|Q9P2K5-3|A0A0A0MQW0 (UniProt Q9P2K5),1.04 ± 0.024,1.11 ± 0.036,1.123 ± 0.0095,1.12 ± 0.026,1.16 ± 0.044,1.19 ± 0.026
A2A274 and related entries (UniProt Q99798),1.012 ± 0.009,0.982 ± 0.029,1.01 ± 0.03,0.966 ± 0.018,0.987 ± 0.035,0.94 ± 0.019
A0A087WWK8|A0A0C4DGT3|Q6DN90 (UniProt Q6DN90),0.984 ± 0.025,0.989 ± 0.029,0.989 ± 0.011,0.995 ± 0.025,0.99 ± 0.02,1.01 ± 0.029
A0A087X011|E9PES4 and related entries (UniProt Q9Y496),0.989 ± 0.019,0.988 ± 0.012,0.982 ± 0.033,0.9603 ± 0.009,0.951 ± 0.021,0.945 ± 0.031
A0A0A6YYC8|I3L1I5 (UniProt I3L1I5),1.01 ± 0.027,1.02 ± 0.04,1.02 ± 0.012,1.01 ± 0.023,1 ± 0.02,1.009 ± 0.0072
A0A0A0MSK6|Q13017 and related entries (UniProt Q13017),1.03 ± 0.037,1.03 ± 0.055,1.03 ± 0.065,1.02 ± 0.069,0.98 ± 0.087,1.02 ± 0.14
A0A0A0MTP3|Q99550 and related entries (UniProt Q99550),0.963 ± 0.082,0.971 ± 0.032,0.965 ± 0.013,0.97 ± 0.082,0.963 ± 0.09,0.977 ± 0.079
A0A0G2JNT7|A0A0G2JQF4|Q7Z3B3 and related entries (UniProt Q7Z3B3),0.999 ± 0.037,1.04 ± 0.078,1.02 ± 0.057,1.05 ± 0.048,1.02 ± 0.055,1.05 ± 0.083
A0A0C4DGA6|Q14527 (UniProt Q14527),1.02 ± 0.024,0.994 ± 0.073,1.02 ± 0.036,1.02 ± 0.041,1.02 ± 0.04,1.01 ± 0.04
A0A087X0V4|A8K0B5 and related entries (UniProt Q8IWT0),0.987 ± 0.031,0.983 ± 0.043,0.942 ± 0.06,0.915 ± 0.047,0.927 ± 0.093,0.896 ± 0.027
A0A087WYU1|A0A087WZW2|Q9Y5X1 (UniProt Q9Y5X1),1.06 ± 0.027,1.1 ± 0.052,1.11 ± 0.036,1.13 ± 0.041,1.1 ± 0.063,1.15 ± 0.053
A0A0B4J1Z1|C9JAB2 and related entries (UniProt Q16629),1.04 ± 0.073,1.01 ± 0.025,0.986 ± 0.014,0.995 ± 0.02,0.945 ± 0.045,1 ± 0.076
A0A0A6YYH1|H0YLI7 and related entries (UniProt Q7Z6K5+P59780+H0YLI7),1 ± 0.04,1.01 ± 0.011,0.9742 ± 0.0072,0.974 ± 0.028,0.965 ± 0.032,0.968 ± 0.017
A0A087X1Z3|Q9UL46 (UniProt Q9UL46),0.967 ± 0.097,1.09 ± 0.13,0.997 ± 0.11,1.01 ± 0.13,1.03 ± 0.063,0.962 ± 0.11
A0A0C4DFM1|Q92544 (UniProt Q92544),0.99 ± 0.025,0.9394 ± 0.0089,0.998 ± 0.04,0.972 ± 0.047,1.02 ± 0.028,0.941 ± 0.061
A0A5E8 and related entries (UniProt Q99501),1.03 ± 0.011,1.02 ± 0.054,1.02 ± 0.014,1.01 ± 0.02,1.02 ± 0.038,1.03 ± 0.029
A0A0A0MSS8|P42330 (UniProt P42330),1.05 ± 0.033,1 ± 0.035,1.05 ± 0.068,1.05 ± 0.051,1.09 ± 0.024,1.07 ± 0.066

# Fetched one by one from the list above:
Target,NP40-soluble protein abundance (concentration: 1mM),NP40-soluble protein abundance (concentration: 2mM),NP40-soluble protein abundance (concentration: 4mM),NP40-soluble protein abundance (concentration: 6mM),NP40-soluble protein abundance (concentration: 8mM),NP40-soluble protein abundance (concentration: 10mM)
A0A5E8 and related entries (UniProt Q99501),1.03 ± 0.011,1.02 ± 0.054,1.02 ± 0.014,1.01 ± 0.02,1.02 ± 0.038,1.03 ± 0.029
A0A087X239|Q6PCB5 (UniProt Q6PCB5),1.05 ± 0.017,1.114 ± 0.0078,1.12 ± 0.015,1.13 ± 0.036,1.15 ± 0.013,1.17 ± 0.022
